This passage reports binding results from PMC6028381.

By UniProt entry, the sequences of proteins in these tests, tags left out. Where a name states a change or a piece, a line headed by the entry shows the natural chain unless it says otherwise.
UniProt Q13315: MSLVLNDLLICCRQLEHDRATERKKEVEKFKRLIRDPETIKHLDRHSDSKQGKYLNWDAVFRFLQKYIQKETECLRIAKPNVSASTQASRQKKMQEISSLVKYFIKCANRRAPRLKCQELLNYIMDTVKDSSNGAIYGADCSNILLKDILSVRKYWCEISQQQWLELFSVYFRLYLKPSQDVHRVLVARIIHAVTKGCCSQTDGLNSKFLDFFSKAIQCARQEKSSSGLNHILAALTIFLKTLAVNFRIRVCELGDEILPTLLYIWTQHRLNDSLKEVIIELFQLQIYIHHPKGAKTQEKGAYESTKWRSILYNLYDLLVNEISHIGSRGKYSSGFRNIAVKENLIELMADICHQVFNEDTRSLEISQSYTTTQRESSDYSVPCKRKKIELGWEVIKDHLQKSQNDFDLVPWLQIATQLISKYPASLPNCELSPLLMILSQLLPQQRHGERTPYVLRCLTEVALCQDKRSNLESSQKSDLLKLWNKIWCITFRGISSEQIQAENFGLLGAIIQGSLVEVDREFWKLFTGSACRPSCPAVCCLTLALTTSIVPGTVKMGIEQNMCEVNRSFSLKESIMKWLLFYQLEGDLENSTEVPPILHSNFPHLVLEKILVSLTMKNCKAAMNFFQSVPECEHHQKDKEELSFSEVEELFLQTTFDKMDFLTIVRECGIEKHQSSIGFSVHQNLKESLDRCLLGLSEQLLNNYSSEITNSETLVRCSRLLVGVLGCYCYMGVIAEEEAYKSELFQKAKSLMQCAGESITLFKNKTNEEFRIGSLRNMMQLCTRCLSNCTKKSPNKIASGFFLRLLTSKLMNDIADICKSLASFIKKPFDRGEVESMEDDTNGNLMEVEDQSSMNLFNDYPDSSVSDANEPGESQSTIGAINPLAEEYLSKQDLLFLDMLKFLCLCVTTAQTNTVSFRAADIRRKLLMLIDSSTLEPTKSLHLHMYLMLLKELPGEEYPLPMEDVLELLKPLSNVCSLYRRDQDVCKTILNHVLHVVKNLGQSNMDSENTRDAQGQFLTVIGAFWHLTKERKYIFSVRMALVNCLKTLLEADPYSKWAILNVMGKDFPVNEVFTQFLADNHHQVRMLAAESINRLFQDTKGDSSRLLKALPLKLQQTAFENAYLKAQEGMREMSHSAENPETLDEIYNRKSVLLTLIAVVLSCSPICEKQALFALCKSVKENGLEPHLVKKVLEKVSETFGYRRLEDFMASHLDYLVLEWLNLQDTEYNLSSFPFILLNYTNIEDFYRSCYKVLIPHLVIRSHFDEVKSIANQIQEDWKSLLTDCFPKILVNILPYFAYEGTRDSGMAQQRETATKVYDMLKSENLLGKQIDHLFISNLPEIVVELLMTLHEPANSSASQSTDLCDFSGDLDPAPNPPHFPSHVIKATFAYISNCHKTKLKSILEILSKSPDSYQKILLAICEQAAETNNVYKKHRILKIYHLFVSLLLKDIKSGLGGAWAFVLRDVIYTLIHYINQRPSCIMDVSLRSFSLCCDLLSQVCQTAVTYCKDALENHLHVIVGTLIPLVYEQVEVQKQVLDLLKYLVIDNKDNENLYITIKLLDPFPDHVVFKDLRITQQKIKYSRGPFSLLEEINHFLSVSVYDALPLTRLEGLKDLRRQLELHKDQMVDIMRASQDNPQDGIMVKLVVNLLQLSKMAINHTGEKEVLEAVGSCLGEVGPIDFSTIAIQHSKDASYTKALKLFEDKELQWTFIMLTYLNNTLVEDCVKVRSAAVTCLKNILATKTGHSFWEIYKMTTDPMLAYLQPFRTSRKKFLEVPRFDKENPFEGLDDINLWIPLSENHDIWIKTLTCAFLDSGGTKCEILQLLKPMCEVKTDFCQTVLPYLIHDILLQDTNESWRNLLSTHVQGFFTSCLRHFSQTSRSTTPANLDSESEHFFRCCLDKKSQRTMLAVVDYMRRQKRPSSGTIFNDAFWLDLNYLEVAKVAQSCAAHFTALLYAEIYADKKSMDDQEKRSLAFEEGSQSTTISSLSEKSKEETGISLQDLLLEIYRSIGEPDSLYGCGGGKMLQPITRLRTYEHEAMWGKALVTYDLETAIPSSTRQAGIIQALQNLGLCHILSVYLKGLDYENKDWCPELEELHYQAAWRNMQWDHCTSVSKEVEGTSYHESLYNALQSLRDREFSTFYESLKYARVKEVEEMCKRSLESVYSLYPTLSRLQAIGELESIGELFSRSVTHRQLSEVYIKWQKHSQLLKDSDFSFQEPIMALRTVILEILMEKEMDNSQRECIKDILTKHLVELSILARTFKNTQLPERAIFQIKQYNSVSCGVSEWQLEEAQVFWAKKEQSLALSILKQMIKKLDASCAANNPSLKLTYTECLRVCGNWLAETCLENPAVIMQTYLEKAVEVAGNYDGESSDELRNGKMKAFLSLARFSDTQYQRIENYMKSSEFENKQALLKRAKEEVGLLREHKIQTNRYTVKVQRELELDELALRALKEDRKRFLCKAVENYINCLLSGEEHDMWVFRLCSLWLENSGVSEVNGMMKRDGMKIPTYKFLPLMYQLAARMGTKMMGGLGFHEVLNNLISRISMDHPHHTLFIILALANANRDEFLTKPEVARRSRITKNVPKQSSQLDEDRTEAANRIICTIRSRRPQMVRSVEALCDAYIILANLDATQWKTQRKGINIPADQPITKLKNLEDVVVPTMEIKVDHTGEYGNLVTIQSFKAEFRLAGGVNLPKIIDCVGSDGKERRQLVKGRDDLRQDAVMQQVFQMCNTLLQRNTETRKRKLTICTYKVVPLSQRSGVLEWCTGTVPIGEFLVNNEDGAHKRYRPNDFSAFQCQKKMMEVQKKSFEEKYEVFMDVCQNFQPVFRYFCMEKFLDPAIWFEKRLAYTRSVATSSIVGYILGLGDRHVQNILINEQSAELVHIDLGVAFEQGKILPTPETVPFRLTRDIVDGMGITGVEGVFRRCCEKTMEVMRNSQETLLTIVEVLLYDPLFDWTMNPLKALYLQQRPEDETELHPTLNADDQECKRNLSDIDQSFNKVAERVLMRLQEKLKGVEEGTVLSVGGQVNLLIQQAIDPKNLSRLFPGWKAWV
UniProt O60934: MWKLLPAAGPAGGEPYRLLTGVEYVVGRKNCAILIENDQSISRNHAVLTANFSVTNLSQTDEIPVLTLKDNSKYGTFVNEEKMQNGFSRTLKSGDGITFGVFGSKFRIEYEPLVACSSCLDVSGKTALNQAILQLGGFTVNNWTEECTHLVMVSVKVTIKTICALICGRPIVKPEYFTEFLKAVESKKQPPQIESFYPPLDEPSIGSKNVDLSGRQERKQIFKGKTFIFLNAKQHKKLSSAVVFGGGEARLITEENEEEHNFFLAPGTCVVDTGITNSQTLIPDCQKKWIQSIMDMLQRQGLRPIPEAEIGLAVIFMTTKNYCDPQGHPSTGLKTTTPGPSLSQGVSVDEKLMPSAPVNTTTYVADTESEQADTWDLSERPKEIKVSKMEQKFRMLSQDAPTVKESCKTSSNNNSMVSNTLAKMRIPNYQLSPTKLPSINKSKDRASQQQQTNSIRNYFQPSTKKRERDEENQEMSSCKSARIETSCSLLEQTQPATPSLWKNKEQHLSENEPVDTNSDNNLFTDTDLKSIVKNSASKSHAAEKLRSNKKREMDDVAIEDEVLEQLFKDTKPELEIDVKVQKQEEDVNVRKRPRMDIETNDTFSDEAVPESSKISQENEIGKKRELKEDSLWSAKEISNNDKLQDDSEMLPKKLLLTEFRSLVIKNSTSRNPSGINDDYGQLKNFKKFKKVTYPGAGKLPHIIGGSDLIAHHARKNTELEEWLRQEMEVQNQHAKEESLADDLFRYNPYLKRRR
UniProt Q92878: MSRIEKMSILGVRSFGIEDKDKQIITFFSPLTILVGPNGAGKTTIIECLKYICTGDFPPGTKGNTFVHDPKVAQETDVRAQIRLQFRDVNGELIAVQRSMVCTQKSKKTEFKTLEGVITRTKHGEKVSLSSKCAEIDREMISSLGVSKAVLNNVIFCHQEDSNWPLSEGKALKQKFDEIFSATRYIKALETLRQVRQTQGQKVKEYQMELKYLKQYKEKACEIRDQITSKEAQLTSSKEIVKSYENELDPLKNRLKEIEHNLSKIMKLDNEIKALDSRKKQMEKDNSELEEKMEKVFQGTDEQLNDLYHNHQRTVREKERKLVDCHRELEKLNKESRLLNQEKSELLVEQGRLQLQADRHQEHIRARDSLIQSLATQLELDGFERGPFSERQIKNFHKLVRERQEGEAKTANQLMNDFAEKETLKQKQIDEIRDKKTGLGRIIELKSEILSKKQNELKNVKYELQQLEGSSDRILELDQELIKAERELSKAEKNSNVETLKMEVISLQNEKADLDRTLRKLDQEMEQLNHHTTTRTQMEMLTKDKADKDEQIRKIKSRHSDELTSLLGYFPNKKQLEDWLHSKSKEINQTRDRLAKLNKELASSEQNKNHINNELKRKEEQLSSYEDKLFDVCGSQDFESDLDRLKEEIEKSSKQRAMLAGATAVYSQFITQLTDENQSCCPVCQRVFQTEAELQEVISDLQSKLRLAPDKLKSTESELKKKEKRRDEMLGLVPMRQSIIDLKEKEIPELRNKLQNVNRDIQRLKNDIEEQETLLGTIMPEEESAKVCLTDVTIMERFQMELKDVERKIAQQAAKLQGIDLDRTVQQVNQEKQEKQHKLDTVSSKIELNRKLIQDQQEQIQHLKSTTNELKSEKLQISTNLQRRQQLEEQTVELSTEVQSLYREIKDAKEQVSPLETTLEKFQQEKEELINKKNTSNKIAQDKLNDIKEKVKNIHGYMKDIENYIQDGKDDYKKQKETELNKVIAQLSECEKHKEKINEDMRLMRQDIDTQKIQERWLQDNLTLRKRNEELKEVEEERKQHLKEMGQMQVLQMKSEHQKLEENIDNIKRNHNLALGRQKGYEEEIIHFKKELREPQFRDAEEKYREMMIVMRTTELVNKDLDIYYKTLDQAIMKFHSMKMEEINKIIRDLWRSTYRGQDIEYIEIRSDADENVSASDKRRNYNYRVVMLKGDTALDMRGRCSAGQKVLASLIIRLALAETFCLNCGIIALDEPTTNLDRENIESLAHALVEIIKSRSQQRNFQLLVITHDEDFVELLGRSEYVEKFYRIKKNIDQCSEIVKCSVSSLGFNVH
UniProt P16403: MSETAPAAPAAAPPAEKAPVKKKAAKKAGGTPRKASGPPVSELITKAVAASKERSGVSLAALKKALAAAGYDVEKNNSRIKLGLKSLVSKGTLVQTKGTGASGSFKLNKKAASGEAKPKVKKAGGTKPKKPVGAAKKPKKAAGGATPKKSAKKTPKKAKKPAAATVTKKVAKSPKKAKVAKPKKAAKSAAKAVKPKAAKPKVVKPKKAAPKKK

Assay [1] has as its target ATM (ataxia telangiectasia mutated), endogenous in HeLa cells (human (endogenous in HeLa)) (UniProt Q13315). The assay is described as follows: co-IP; HeLa cell lysates in NP-40 buffer, precipitated with the indicated antibodies (anti-ATM and others) and protein G or A Sepharose, 4 °C overnight; immunoblot; with or without benzonase (10 U/mL), H1.2 over-expression, 40 μM etoposide 2 h.

The target in a further assay is T1, GST-MRE11 (UniProt P49959).
T1 sequence: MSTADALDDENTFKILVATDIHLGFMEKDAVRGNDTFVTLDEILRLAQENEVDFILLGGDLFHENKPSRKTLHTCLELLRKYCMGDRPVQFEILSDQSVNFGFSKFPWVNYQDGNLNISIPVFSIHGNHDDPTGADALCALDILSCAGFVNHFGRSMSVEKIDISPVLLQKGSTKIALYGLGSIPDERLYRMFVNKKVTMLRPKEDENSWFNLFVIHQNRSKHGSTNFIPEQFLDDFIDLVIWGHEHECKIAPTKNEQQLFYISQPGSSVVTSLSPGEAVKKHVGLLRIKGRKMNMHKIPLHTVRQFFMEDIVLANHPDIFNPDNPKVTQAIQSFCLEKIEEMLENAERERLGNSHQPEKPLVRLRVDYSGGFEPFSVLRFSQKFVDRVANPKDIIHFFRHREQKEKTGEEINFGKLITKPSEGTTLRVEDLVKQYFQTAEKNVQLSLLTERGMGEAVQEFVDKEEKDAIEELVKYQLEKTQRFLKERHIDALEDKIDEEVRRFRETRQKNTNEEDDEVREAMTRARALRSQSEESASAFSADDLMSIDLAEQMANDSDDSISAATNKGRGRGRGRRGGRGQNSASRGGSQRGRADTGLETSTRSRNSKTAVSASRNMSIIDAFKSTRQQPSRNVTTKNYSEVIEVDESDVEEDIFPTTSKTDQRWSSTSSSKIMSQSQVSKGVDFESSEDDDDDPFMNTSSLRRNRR
The assay is described as follows: pull-down; GST pull-down: equal amounts of HIS-fusion protein incubated with GST-fusion proteins (from E. coli) in TEN buffer (10 mM Tris-HCl pH 8.0, 1 mM EDTA, 100 mM NaCl), 4 h, 4 °C; immunoblot; for H1.2-MRE11 also with benzonase; both purified.

The next assay addresses GST-NBS1 (UniProt O60934). Described as above.
A further assay has as its target GST-RAD50 (UniProt Q92878). The description is as above.

Results are given in words; binding and its absence hold for the method and conditions named. For some of these results: In cells and extracts the contact can be indirect. Some binding calls cover weakened binding; strength is not graded here. For some of these results: Tags and fused reporters may be left off the sequences shown.

Regarding “linker histone H1.2, endogenous in HeLa cells (from UniProt P16403 1-213)”, the binding entry in assay [1] is “binds”.
As to “HIS-H1.2 (recombinant full-length linker histone H1.2) (from UniProt P16403 1-213)”, the values for the binding result with GST-MRE11, with GST-NBS1 and with GST-RAD50 were “binds”, “no binding” and “no binding”, respectively.
